Data on one substance can be found in publication PMC9813592, “A genetic screen in Arabidopsis reveals the identical roles for RBP45d and PRP39a in 5’ cryptic splice site selection”.

Results are given in words; binding and its absence hold for the method and conditions named. For part of these data: Binding calls can cover weak binding; strength is not graded here. For part of these data: In cells and extracts the contact can be indirect.

Assay [1] addresses T1, RBP45d (Arabidopsis) (UniProt Q8VXZ9).
T1 sequence: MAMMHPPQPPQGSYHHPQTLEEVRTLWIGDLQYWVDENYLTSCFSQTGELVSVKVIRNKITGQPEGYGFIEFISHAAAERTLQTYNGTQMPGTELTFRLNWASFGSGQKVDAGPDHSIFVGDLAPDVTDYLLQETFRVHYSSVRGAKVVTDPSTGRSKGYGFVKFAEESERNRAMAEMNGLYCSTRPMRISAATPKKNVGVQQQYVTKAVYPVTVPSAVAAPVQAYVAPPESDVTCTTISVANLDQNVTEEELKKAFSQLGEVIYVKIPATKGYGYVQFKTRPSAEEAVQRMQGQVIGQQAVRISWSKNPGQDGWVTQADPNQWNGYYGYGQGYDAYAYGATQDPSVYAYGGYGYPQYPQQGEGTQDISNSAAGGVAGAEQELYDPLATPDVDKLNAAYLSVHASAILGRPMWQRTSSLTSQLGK
Description: two-hybrid; yeast strain AH109; fusions from pDEST22 and pDEST32; transformants selected on SD-Leu-Trp; interactions tested on SD-Trp-Leu-His with or without 5 mM 3-AT.

Assay [2] deals with T1, RBP45d (Arabidopsis). Description: split reporter; BiFC in Arabidopsis protoplasts; vectors pE3130 and pE3136; YFP fluorescence.
The next assay addresses T2, RBP47b (Arabidopsis) (UniProt Q0WW84).
T2 sequence: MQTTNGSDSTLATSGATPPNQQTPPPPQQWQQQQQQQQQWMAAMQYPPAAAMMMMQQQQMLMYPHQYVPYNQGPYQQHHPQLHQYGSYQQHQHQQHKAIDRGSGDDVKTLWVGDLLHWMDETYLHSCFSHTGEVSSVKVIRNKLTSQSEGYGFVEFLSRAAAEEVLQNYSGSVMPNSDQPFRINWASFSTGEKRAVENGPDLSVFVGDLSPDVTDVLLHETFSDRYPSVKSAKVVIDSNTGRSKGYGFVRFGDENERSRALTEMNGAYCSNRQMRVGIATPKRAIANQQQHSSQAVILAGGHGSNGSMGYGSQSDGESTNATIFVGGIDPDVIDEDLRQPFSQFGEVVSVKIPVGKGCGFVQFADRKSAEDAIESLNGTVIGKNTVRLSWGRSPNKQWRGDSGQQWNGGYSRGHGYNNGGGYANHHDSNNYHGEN
Described as above.

In the case of PRP39a (Arabidopsis), the results for the binding result with RBP45d (Arabidopsis) [1], with RBP45d (Arabidopsis) [2] and with RBP47b (Arabidopsis) were “binds”, “binds” and “no binding”, respectively.
